Test results taken from the supplement of paper PMC11546906.
Structures can show the parent of a compound that is named as a salt. This is one part of the list. This data set is noisy: repeats of one test often differ as much as different tests do.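 Screen of FDA-approved drugs, each combined with colistin at one-eighth of its MIC, against a multidrug-resistant mcr-1-positive clinical E. coli isolate; growth read as OD600 after 24 h. Bacteria without drug were the growth control and plain broth the blank. A combination counted as active when OD600 fell below 0.2.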

The molecules below were run on Escherichia coli 42 (mcr-1-positive clinical isolate) (assay: OD600 after 24 h growth with compound plus colistin (absorbance units (OD600)); higher = more bacterial growth (less inhibition)). Settings: first compound 25 µM; colistin concentration 0.5 ug/mL; incubation time 24 h; 37 °C.
In the case of `OC[C@@H](O)[C@@H](O)[C@H](O)[C@H](O)CO` [D-Mannitol] + CCC(C)CCCC(=O)N[C@@H](CCN)C(=O)N[C@H](C(=O)N[C@@H](CCN)C(=O)N[C@H]1CCNC(=O)[C@H]([C@@H](C)O)NC(=O)[C@H](CCN)NC(=O)[C@H](CCN)NC(=O)[C@H](CC(C)C)NC(=O)[C@@H](CC(C)C)NC(=O)[C@H](CCN)NC1=O)[C@@H](C)O [colistin], the OD600 is reported as inactive: 0.805.
With `CC(O)(P(=O)(O)O)P(=O)(O)O` [Etidronic acid] + CCC(C)CCCC(=O)N[C@@H](CCN)C(=O)N[C@H](C(=O)N[C@@H](CCN)C(=O)N[C@H]1CCNC(=O)[C@H]([C@@H](C)O)NC(=O)[C@H](CCN)NC(=O)[C@H](CCN)NC(=O)[C@H](CC(C)C)NC(=O)[C@@H](CC(C)C)NC(=O)[C@H](CCN)NC1=O)[C@@H](C)O [colistin] the OD600 was inactive: 1.02.
For `CC(C)NCC(O)COc1cccc2ccccc12` (stereo unspecified) [Propranolol hydrochloride] + CCC(C)CCCC(=O)N[C@@H](CCN)C(=O)N[C@H](C(=O)N[C@@H](CCN)C(=O)N[C@H]1CCNC(=O)[C@H]([C@@H](C)O)NC(=O)[C@H](CCN)NC(=O)[C@H](CCN)NC(=O)[C@H](CC(C)C)NC(=O)[C@@H](CC(C)C)NC(=O)[C@H](CCN)NC1=O)[C@@H](C)O [colistin], the OD600 was inactive: 0.82.
`Cc1ccc(Cl)c(Nc2ccccc2C(=O)O)c1Cl` [Meclofenamic acid sodium] + CCC(C)CCCC(=O)N[C@@H](CCN)C(=O)N[C@H](C(=O)N[C@@H](CCN)C(=O)N[C@H]1CCNC(=O)[C@H]([C@@H](C)O)NC(=O)[C@H](CCN)NC(=O)[C@H](CCN)NC(=O)[C@H](CC(C)C)NC(=O)[C@@H](CC(C)C)NC(=O)[C@H](CCN)NC1=O)[C@@H](C)O [colistin] was tested, and the OD600 was inactive: 1.13.
For `COc1cc2c(cc1Cc1cccc(Cl)c1F)c(=O)c(C(=O)O)cn2[C@H](CO)C(C)C` [Elvitegravir] + CCC(C)CCCC(=O)N[C@@H](CCN)C(=O)N[C@H](C(=O)N[C@@H](CCN)C(=O)N[C@H]1CCNC(=O)[C@H]([C@@H](C)O)NC(=O)[C@H](CCN)NC(=O)[C@H](CCN)NC(=O)[C@H](CC(C)C)NC(=O)[C@@H](CC(C)C)NC(=O)[C@H](CCN)NC1=O)[C@@H](C)O [colistin], the OD600 was inactive: 0.87.
For `O=C(C1CCCCC1)N1CC(=O)N2CCc3ccccc3C2C1` (stereo unspecified) [Praziquantel] + CCC(C)CCCC(=O)N[C@@H](CCN)C(=O)N[C@H](C(=O)N[C@@H](CCN)C(=O)N[C@H]1CCNC(=O)[C@H]([C@@H](C)O)NC(=O)[C@H](CCN)NC(=O)[C@H](CCN)NC(=O)[C@H](CC(C)C)NC(=O)[C@@H](CC(C)C)NC(=O)[C@H](CCN)NC1=O)[C@@H](C)O [colistin], the OD600 was inactive: 0.74.
For `OC[C@@H](O)[C@@H](O)[C@H](O)[C@@H](O)CO` [D-Sorbitol] + CCC(C)CCCC(=O)N[C@@H](CCN)C(=O)N[C@H](C(=O)N[C@@H](CCN)C(=O)N[C@H]1CCNC(=O)[C@H]([C@@H](C)O)NC(=O)[C@H](CCN)NC(=O)[C@H](CCN)NC(=O)[C@H](CC(C)C)NC(=O)[C@@H](CC(C)C)NC(=O)[C@H](CCN)NC1=O)[C@@H](C)O [colistin], the OD600 was inactive: 0.712.
For `CC(C)C(=O)Oc1ccc(CO)cc1[C@H](CCN(C(C)C)C(C)C)c1ccccc1` [Fesoterodine fumarate] + CCC(C)CCCC(=O)N[C@@H](CCN)C(=O)N[C@H](C(=O)N[C@@H](CCN)C(=O)N[C@H]1CCNC(=O)[C@H]([C@@H](C)O)NC(=O)[C@H](CCN)NC(=O)[C@H](CCN)NC(=O)[C@H](CC(C)C)NC(=O)[C@@H](CC(C)C)NC(=O)[C@H](CCN)NC1=O)[C@@H](C)O [colistin], the OD600 was inactive: 1.07.
In the case of `COC(=O)/C=C/C(=O)OC` [Dimethyl fumarate] + CCC(C)CCCC(=O)N[C@@H](CCN)C(=O)N[C@H](C(=O)N[C@@H](CCN)C(=O)N[C@H]1CCNC(=O)[C@H]([C@@H](C)O)NC(=O)[C@H](CCN)NC(=O)[C@H](CCN)NC(=O)[C@H](CC(C)C)NC(=O)[C@@H](CC(C)C)NC(=O)[C@H](CCN)NC1=O)[C@@H](C)O [colistin], the OD600 is reported as inactive: 1.01.
With `Cc1cn[nH]c1` [Fomepizole] + CCC(C)CCCC(=O)N[C@@H](CCN)C(=O)N[C@H](C(=O)N[C@@H](CCN)C(=O)N[C@H]1CCNC(=O)[C@H]([C@@H](C)O)NC(=O)[C@H](CCN)NC(=O)[C@H](CCN)NC(=O)[C@H](CC(C)C)NC(=O)[C@@H](CC(C)C)NC(=O)[C@H](CCN)NC1=O)[C@@H](C)O [colistin] the OD600 was inactive: 1.09.
In the case of `O=c1ccc2ccc(OCCCCN3CCN(c4cccc5sccc45)CC3)cc2[nH]1` [Brexpiprazole] + CCC(C)CCCC(=O)N[C@@H](CCN)C(=O)N[C@H](C(=O)N[C@@H](CCN)C(=O)N[C@H]1CCNC(=O)[C@H]([C@@H](C)O)NC(=O)[C@H](CCN)NC(=O)[C@H](CCN)NC(=O)[C@H](CC(C)C)NC(=O)[C@@H](CC(C)C)NC(=O)[C@H](CCN)NC1=O)[C@@H](C)O [colistin], the OD600 is reported as inactive: 0.914.
With `CC(C)Nc1nc2cc(Cl)c(Cl)cc2n1[C@H]1O[C@@H](CO)[C@H](O)[C@@H]1O` [Maribavir] + CCC(C)CCCC(=O)N[C@@H](CCN)C(=O)N[C@H](C(=O)N[C@@H](CCN)C(=O)N[C@H]1CCNC(=O)[C@H]([C@@H](C)O)NC(=O)[C@H](CCN)NC(=O)[C@H](CCN)NC(=O)[C@H](CC(C)C)NC(=O)[C@@H](CC(C)C)NC(=O)[C@H](CCN)NC1=O)[C@@H](C)O [colistin] the OD600 was inactive: 1.03.
With `CO[C@H]1/C=C/O[C@@]2(C)Oc3c(C)c(O)c4c(O)c(c(/C=N/N5CCN(C)CC5)c(O)c4c3C2=O)NC(=O)/C(C)=C\C=C\[C@H](C)[C@H](O)[C@@H](C)[C@@H](O)[C@@H](C)[C@H](OC(C)=O)[C@@H]1C` [Rifampicin] + CCC(C)CCCC(=O)N[C@@H](CCN)C(=O)N[C@H](C(=O)N[C@@H](CCN)C(=O)N[C@H]1CCNC(=O)[C@H]([C@@H](C)O)NC(=O)[C@H](CCN)NC(=O)[C@H](CCN)NC(=O)[C@H](CC(C)C)NC(=O)[C@@H](CC(C)C)NC(=O)[C@H](CCN)NC1=O)[C@@H](C)O [colistin] the OD600 was active: 0.05.
`CC(C)(C)C(=O)OCOP(=O)(COCCn1cnc2c(N)ncnc21)OCOC(=O)C(C)(C)C` [Adefovir dipivoxil] + CCC(C)CCCC(=O)N[C@@H](CCN)C(=O)N[C@H](C(=O)N[C@@H](CCN)C(=O)N[C@H]1CCNC(=O)[C@H]([C@@H](C)O)NC(=O)[C@H](CCN)NC(=O)[C@H](CCN)NC(=O)[C@H](CC(C)C)NC(=O)[C@@H](CC(C)C)NC(=O)[C@H](CCN)NC1=O)[C@@H](C)O [colistin] was tested, and the OD600 was inactive: 1.09.
In the case of `C#C[C@]1(OC(C)=O)CC[C@H]2[C@@H]3CCC4=C[C@@H](OC(C)=O)CC[C@@H]4[C@H]3CC[C@@]21C` [Ethynodiol diacetate] + CCC(C)CCCC(=O)N[C@@H](CCN)C(=O)N[C@H](C(=O)N[C@@H](CCN)C(=O)N[C@H]1CCNC(=O)[C@H]([C@@H](C)O)NC(=O)[C@H](CCN)NC(=O)[C@H](CCN)NC(=O)[C@H](CC(C)C)NC(=O)[C@@H](CC(C)C)NC(=O)[C@H](CCN)NC1=O)[C@@H](C)O [colistin], the OD600 is reported as inactive: 0.906.
`CC(=O)OCC(=O)[C@@]1(O)CC[C@H]2[C@@H]3CCC4=CC(=O)CC[C@]4(C)[C@H]3C(=O)C[C@@]21C` [Cortisone acetate] + CCC(C)CCCC(=O)N[C@@H](CCN)C(=O)N[C@H](C(=O)N[C@@H](CCN)C(=O)N[C@H]1CCNC(=O)[C@H]([C@@H](C)O)NC(=O)[C@H](CCN)NC(=O)[C@H](CCN)NC(=O)[C@H](CC(C)C)NC(=O)[C@@H](CC(C)C)NC(=O)[C@H](CCN)NC1=O)[C@@H](C)O [colistin] was tested, and the OD600 was inactive: 0.97.
With `O=C(c1ccc(OCCN2CCCCC2)cc1)c1c(-c2ccc(O)cc2)sc2cc(O)ccc12` [Raloxifene hydrochloride] + CCC(C)CCCC(=O)N[C@@H](CCN)C(=O)N[C@H](C(=O)N[C@@H](CCN)C(=O)N[C@H]1CCNC(=O)[C@H]([C@@H](C)O)NC(=O)[C@H](CCN)NC(=O)[C@H](CCN)NC(=O)[C@H](CC(C)C)NC(=O)[C@@H](CC(C)C)NC(=O)[C@H](CCN)NC1=O)[C@@H](C)O [colistin] the OD600 was inactive: 0.879.
`OC(CCN1CCCCC1)(c1ccccc1)C1CCCCC1` (racemic) [DL-trihexyphenidyl hydrochloride] + CCC(C)CCCC(=O)N[C@@H](CCN)C(=O)N[C@H](C(=O)N[C@@H](CCN)C(=O)N[C@H]1CCNC(=O)[C@H]([C@@H](C)O)NC(=O)[C@H](CCN)NC(=O)[C@H](CCN)NC(=O)[C@H](CC(C)C)NC(=O)[C@@H](CC(C)C)NC(=O)[C@H](CCN)NC1=O)[C@@H](C)O [colistin] was tested, and the OD600 was inactive: 0.936.
In the case of `CNCC[C@@H](Oc1ccccc1C)c1ccccc1` [Atomoxetine hydrochloride] + CCC(C)CCCC(=O)N[C@@H](CCN)C(=O)N[C@H](C(=O)N[C@@H](CCN)C(=O)N[C@H]1CCNC(=O)[C@H]([C@@H](C)O)NC(=O)[C@H](CCN)NC(=O)[C@H](CCN)NC(=O)[C@H](CC(C)C)NC(=O)[C@@H](CC(C)C)NC(=O)[C@H](CCN)NC1=O)[C@@H](C)O [colistin], the OD600 is reported as inactive: 0.85.
For `CC1(C)OC(=O)NC1=O` [5,5-Dimethyloxazolidine-2,4-dione] + CCC(C)CCCC(=O)N[C@@H](CCN)C(=O)N[C@H](C(=O)N[C@@H](CCN)C(=O)N[C@H]1CCNC(=O)[C@H]([C@@H](C)O)NC(=O)[C@H](CCN)NC(=O)[C@H](CCN)NC(=O)[C@H](CC(C)C)NC(=O)[C@@H](CC(C)C)NC(=O)[C@H](CCN)NC1=O)[C@@H](C)O [colistin], the OD600 was inactive: 1.1.
`CCCc1nn(C)c2c(=O)[nH]c(-c3cc(S(=O)(=O)N4CCN(C)CC4)ccc3OCC)nc12` [Sildenafil citrate] + CCC(C)CCCC(=O)N[C@@H](CCN)C(=O)N[C@H](C(=O)N[C@@H](CCN)C(=O)N[C@H]1CCNC(=O)[C@H]([C@@H](C)O)NC(=O)[C@H](CCN)NC(=O)[C@H](CCN)NC(=O)[C@H](CC(C)C)NC(=O)[C@@H](CC(C)C)NC(=O)[C@H](CCN)NC1=O)[C@@H](C)O [colistin] was tested, and the OD600 was inactive: 0.896.
